Our source for the binding values is doi:10.1101/2022.09.08.506647.

Protein sequences, listed by entry. Tags and fused reporters are not part of them.
UniProt P78344: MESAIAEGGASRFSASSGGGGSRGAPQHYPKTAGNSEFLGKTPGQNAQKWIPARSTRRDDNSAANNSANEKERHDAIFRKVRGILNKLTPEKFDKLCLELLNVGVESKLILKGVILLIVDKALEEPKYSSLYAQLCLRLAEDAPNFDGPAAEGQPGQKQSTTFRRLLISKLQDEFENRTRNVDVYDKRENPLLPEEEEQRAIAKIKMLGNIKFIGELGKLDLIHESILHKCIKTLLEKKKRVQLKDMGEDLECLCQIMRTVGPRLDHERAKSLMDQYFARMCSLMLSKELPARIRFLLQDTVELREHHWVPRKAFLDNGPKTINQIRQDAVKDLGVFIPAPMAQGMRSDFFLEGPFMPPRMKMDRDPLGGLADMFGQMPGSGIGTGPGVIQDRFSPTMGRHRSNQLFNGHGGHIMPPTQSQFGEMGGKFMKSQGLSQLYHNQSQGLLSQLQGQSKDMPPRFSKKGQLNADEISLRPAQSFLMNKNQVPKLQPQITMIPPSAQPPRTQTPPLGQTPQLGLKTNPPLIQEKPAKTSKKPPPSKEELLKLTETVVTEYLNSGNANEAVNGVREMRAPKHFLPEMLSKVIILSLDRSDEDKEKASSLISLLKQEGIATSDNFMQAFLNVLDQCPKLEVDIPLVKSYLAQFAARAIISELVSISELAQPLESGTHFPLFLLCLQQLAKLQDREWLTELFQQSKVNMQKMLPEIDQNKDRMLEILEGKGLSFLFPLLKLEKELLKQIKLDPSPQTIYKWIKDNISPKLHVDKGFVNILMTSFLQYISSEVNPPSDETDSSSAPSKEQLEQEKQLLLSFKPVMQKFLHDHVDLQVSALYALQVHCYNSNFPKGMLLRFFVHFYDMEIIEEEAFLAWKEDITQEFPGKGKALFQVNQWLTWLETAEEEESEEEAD

No constants are given. Whether binding was seen depends on the method and setting. Binding seen in cells or lysates may run through a third protein. Here binding means that the protein was enriched with, or labelled near, the bait; the list need not be complete.

The experiment concerns the target T1, DEAD-box helicase 1 (DDX1), endogenous (human (endogenous in KELLY and IMR5/75)) (UniProt Q92499).
T1 sequence: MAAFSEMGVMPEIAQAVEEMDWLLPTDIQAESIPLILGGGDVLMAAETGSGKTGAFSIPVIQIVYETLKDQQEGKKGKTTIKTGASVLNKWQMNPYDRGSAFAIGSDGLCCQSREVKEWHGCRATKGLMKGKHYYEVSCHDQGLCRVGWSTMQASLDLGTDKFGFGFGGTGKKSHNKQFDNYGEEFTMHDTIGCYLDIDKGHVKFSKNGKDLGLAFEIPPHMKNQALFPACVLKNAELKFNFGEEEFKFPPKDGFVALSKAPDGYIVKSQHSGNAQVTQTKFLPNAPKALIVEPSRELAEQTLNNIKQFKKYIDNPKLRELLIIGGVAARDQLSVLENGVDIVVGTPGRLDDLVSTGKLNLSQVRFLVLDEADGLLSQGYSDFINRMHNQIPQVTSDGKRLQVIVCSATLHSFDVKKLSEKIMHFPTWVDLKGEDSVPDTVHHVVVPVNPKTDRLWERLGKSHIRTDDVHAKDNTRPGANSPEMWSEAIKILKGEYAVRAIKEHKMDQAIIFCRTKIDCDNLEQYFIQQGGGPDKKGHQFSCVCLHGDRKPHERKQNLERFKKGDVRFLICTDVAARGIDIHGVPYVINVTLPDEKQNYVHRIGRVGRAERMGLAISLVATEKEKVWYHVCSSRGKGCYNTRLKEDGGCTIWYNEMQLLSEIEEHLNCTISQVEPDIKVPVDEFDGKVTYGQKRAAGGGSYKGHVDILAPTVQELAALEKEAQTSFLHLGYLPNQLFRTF
Kind of experiment: affinity purification with mass spectrometry.

As to “eIF4G2, endogenous (from UniProt P78344 1-907)”, the binding entry is on record as “binds”.

B1: DLD, endogenous (protein, UniProt P09622 36-509)
chain: ADQPIDADVTVIGSGPGGYVAAIKAAQLGFKTVCIEKNETLGGTCLNVGCIPSKALLNNSHYYHMAHGKDFASRGIEMSEVRLNLDKMMEQKSTAVKALTGGIAHLFKQNKVVHVNGYGKITGKNQVTATKADGGTQVIDTKNILIATGSEVTPFPGITIDEDTIVSSTGALSLKKVPEKMVVIGAGVIGVELGSVWQRLGADVTAVEFLGHVGGVGIDMEISKNFQRILQKQGFKFKLNTKVTGATKKSDGKIDVSIEAASGGKAEVITCDVLLVCIGRRPFTKNLGLEELGIELDPRGRIPVNTRFQTKIPNIYAIGDVVAGPMLAHKAEDEGIICVEGMAGGAVHIDYNCVPSVIYTHPEVAWVGKSEEQLKEEGIEYKVGKFPFAANSRAKTNADTDGMVKILGQKSTDRVLGAHILGPGAGEMVNEAALALEYGASCEDIARVCHAHPTLSEAFREANLAASFGKSINF
Regarding B1, the binding result is recorded as “binds”.
